# Measurements reported in PubChem BioAssay AID1259308 (NCATS, 2017)
# Assay: 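Genes whose loss raises luciferase production in HEK293 cells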 (primary screen)
# Cells: human HEK293 embryonic kidney cells stably expressing firefly luciferase (HEK-CMV-Luc2-Hygro)
# Reagents: single siRNA against human genes, 0.8 pmol siRNA per well
# Time to read-out: 72 h
# Measurement: 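Luciferase light (ONE-Glo) measured on one replicate plate set and viability (CellTiter-Glo) on the other, scaled to a negative control siRNA, with robust z-scores and luciferase per cell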
# Direction: total luciferase, z-score and total luciferase, % of control: higher = more reporter protein produced; luciferase per cell, z-score: higher = more reporter output per viable cell; viable cells, % of control: higher = more viable cells
# Active means: 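Active when the median/MAD z-score for overall luciferase is greater than 3; a gene was taken forward for validation with new siRNAs if at least two of its three siRNAs passed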
# Meaning of the calls: active = raised luciferase; inactive = no rise
# Here is a random part of about 59,000 deposited reagents. About 1,510 of them (2.6%) were called active. 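Calls use total luciferase alone and ignore viability, so some active siRNAs may act by altering cell number.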 Reagents against one gene are numbered here.
gene,siRNA no.,"total luciferase, z-score","total luciferase, % of control","luciferase per cell, z-score","viable cells, % of control",call
PROSER3,1,-1.47,52.6,-0.618,69.1,inactive
PROSER3,2,-0.109,79.7,-0.556,103,inactive
PROSER3,3,0.485,91.5,-0.257,109,inactive
H2ACP1,1,0.867,99.1,1.09,83.2,inactive
H2ACP1,2,-0.929,63.4,-1.16,96.3,inactive
H2ACP1,3,0.0184,82.3,0.401,82.7,inactive
ECT2,1,-0.606,69.8,-1,102,inactive
ECT2,2,0.426,90.4,0.661,84.8,inactive
ECT2,3,-0.551,70.9,-0.797,97.8,inactive

Copied from the list:
PROSER3 #2, viable cells, % of control → 103
Entry of PROSER3 #3 in “total luciferase, z-score”: 0.485
Result for H2ACP1 #1 under “viable cells, % of control”: 83.2

Further entries follow.
gene,siRNA no.,"total luciferase, z-score","total luciferase, % of control","luciferase per cell, z-score","viable cells, % of control",call
YPEL5,1,-2.84,25.5,-2.72,58.2,inactive
YPEL5,2,0.531,92.4,-0.281,111,inactive
YPEL5,3,0.38,89.4,-0.251,107,inactive
H2BC1,1,-0.898,64,-1.03,93.9,inactive
H2BC1,2,-0.329,75.3,-0.26,90.1,inactive
H2BC1,3,0.44,90.6,-0.381,112,inactive
ARL6IP1P2,1,-0.781,66.3,-0.584,86.5,inactive
ARL6IP1P2,2,0.31,88.1,0.554,85,inactive
ARL6IP1P2,3,1.1,104,1.94,69.6,inactive
FSTL1,1,-0.408,73.8,-0.507,94.2,inactive
FSTL1,2,1.54,113,1.26,90.2,inactive
FSTL1,3,-0.124,79.4,0.281,82.4,inactive
HIPK1,1,0.684,95.5,0.938,83.4,inactive
HIPK1,2,2.33,128,2.2,80.4,inactive
HIPK1,3,3.08,143,2.69,78.7,active
